{
  "source": "patent US20190083449A1",
  "about": "“COMBINATION THERAPY WITH AN ANTI-HYALURONAN AGENT AND THERAPEUTIC AGENT” (Halozyme, Inc., priority 2012, published 2019)",
  "origin": "cited, not measured here",
  "key": {"[1]": {"conditions": "route (IV or PO); cited from earlier work"}, "[2]": {"conditions": "cited from earlier work"}},
  "note": "For some assays here: For at least one compound, name, drawing or mass did not settle the structure. Some results were stated once for a whole list of compounds, not compound by compound.",
  "data": [
    {"smiles": "C[C@@H]1C[C@H]2[C@@H]3CCC4=CC(=O)C=C[C@]4(C)[C@@]3(F)[C@@H](O)C[C@]2(C)[C@@]1(O)C(=O)CO", "note": "[Dexamethasone]", "values": [
      {"measurement": "Equivalent Potency", "setting": "[1]", "result": "0.5 to 0.75", "unit": "mg"}
    ]},
    {"smiles": "CC(=O)O[C@@]12CO[C@@H]1C[C@H](O)[C@@]1(C)C(=O)[C@H](O)C3=C(C)C(OC(=O)[C@H](O)[C@@H](NC(=O)OC(C)(C)C)c4ccccc4)C[C@@](O)([C@@H](OC(=O)c4ccccc4)[C@H]21)C3(C)C", "note": "(some centres unmarked) [docetaxel]", "values": [
      {"measurement": "water solubility", "setting": "[2]", "result": "less than 10 μg/mL"}
    ]}
  ]
}
